For experiment [1], the system named is ReNCell VM. Briefly: neuronal differentiation score (DCX+ cell fraction vs untreated, manual image score) (score (-3 to 3)); higher = more neuronal differentiation. Conditions: 2 uM, 2 weeks.
Experiment [2] concerns ReNCell VM. Briefly: dopaminergic neuron differentiation score (TH+ cell fraction vs untreated, manual image score) (score (0 to 3)); higher = more TH+ dopaminergic neuron differentiation. Conditions: 2 uM, 4 weeks, BDNF 10 ng/ml + GDNF 10 ng/ml.

The structures appear in SMILES notation. Counter-ions that a name gives are not always drawn. The list shows a part of the results. Single values are uncertain here, since repeats match poorly.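 Cells: ReNCell VM human fetal ventral-midbrain neural progenitors, differentiated mitogen-free. Blinded raters compared doublecortin-stained (early neurons) or tyrosine hydroxylase-stained (dopaminergic neurons) images with untreated wells, where 0 means no change. After repeats and both raters were averaged, compounds scoring 2 or above became hits for retesting.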

In the case of `COc1ccccc1Oc1coc2cc(O)ccc2c1=O` [7-hydroxy-3-(2-methoxy-phenoxy)-chromen-4-one], the neuronal differentiation score in experiment [1] (library: Natural) is inactive: 0. The “dopaminergic neuron differentiation score” value in experiment [2] (library: Natural) is inactive: 0.

Turning to `O=C(O)CCc1ccc(NCc2cccc(Oc3ccccc3)c2)cc1`, the neuronal differentiation score in experiment [1] (library: Tocriscreen) is inactive: 0. In addition, in experiment [2] (library: Tocriscreen), the “dopaminergic neuron differentiation score” value was inactive: 0.

`COc1ccc2c(c1)OCC(Cc1ccc(OC)c(OC)c1)C2=O` (configuration not stated): the neuronal differentiation score in experiment [1] (library: Spectrum) is inactive: 0. The “dopaminergic neuron differentiation score” value in experiment [2] (library: Spectrum) was inactive: 0.

Consider `CCC(=O)O[C@H]1[C@H](O[C@@H]2[C@@H](C)[C@H](O[C@H]3C[C@@](C)(OC)[C@@H](O)[C@H](C)O3)[C@@H](C)C(=O)O[C@H](CC)[C@@](C)(O)[C@H](O)[C@@H](C)C(=O)[C@H](C)C[C@@]2(C)O)O[C@H](C)C[C@@H]1N(C)C`, for which the neuronal differentiation score in experiment [1] (library: Spectrum) is inactive: 0. Besides, in experiment [2] (library: Spectrum), the “dopaminergic neuron differentiation score” value is inactive: 0.

As for `Cc1nccn1CC1CCc2c(c3ccccc3n2C)C1=O` (configuration not stated), the neuronal differentiation score in experiment [1] (library: Spectrum) is inactive: 0. Moreover, the “dopaminergic neuron differentiation score” value in experiment [2] (library: Spectrum) is inactive: 0.

On to `CCCCC(=O)O[C@H]1CC[C@H]2[C@@H]3CCc4cc(O)ccc4[C@H]3CC[C@]12C` [Estradiol Valerate], for which the neuronal differentiation score in experiment [1] (library: Prestwick) was inactive: 0. Besides, the “dopaminergic neuron differentiation score” value in experiment [2] (library: Prestwick) is inactive: 0.

Take `O=C1C(Cl)=C(NCCN2CCOCC2)C(=O)c2ncccc21`: the neuronal differentiation score in experiment [1] (library: Tocriscreen) was inactive: 0. Moreover, in experiment [2] (library: Tocriscreen), the “dopaminergic neuron differentiation score” value is inactive: 0.

With `CN1CCN(CC/C=C2/c3ccccc3Sc3ccc(S(=O)(=O)N(C)C)cc32)CC1` [Thiothixene hydrochloride], the neuronal differentiation score in experiment [1] (library: LOPAC) is inactive: 0. In addition, the “dopaminergic neuron differentiation score” value in experiment [2] (library: LOPAC) is inactive: 0.

With `N=C(N)N1CCc2ccccc2C1`, the neuronal differentiation score in experiment [1] (library: Spectrum) is inactive: 0. The “dopaminergic neuron differentiation score” value in experiment [2] (library: Spectrum) is inactive: 0.

For the compound `COc1ccc2cccc(N3CCN(CCNC(=O)c4ccc(F)cc4)CC3)c2c1`, the neuronal differentiation score in experiment [1] (library: Tocriscreen) is inactive: 0. For the same compound, the “dopaminergic neuron differentiation score” value in experiment [2] (library: Tocriscreen) is inactive: 0.

For the compound `CCOC(=O)c1ncc2[nH]c3cccc(OC(C)C)c3c2c1C`, the neuronal differentiation score in experiment [1] (library: Tocriscreen) is inactive: 0. Besides, the “dopaminergic neuron differentiation score” value in experiment [2] (library: Tocriscreen) is inactive: 0.

For the origin of these results see the supplement of paper PMC4635364.
